Reference: PubChem BioAssay AID652243 (Drosophila RNAi Screening Center, 2013)
The deposit covers about 24,000 reagents; shown is an unselected part of those with a known target gene and a result. In the full data, 246 (1%) are marked active. 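Plates not normalised; calls are printed but the firefly/Renilla ratio behind them is not deposited; fold cut for lowering reported inconsistently.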 Raw values are not corrected between plates. Names joined by + are all predicted targets of the reagent. The record does not give: the amount of reagent.

- Screen: 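Knock-downs that decrease or increase androgen receptor reporter signal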 (primary screen)
- Cell system: Drosophila S2R+ cells
- Reagent: long dsRNA against Drosophila genes
- Time to read-out: 72 h (48 h, then 24 h hormone)
- Conditions: synthetic androgen R1881 at 10 nM for 24 h
- Detection: 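Firefly light from an androgen-responsive reporter and Renilla control light per well, raw and unnormalised, for each of two replicates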
- Direction: firefly reporter light: higher = more light from androgen-responsive reporter; Renilla control light: higher = more constitutive control signal (cell number, transfection)
- Call rule: 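Across duplicate plates, a knock-down whose log firefly/Renilla ratio shifted a set fold down or up from the GFP/LacZ control mean was a hit; the downward cut appears as both 1.5 and 3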
- Calls: active = hit: reporter lowered or raised; inactive = no hit

no.	target gene	dsRNA	firefly reporter light, replicate 1	firefly reporter light, replicate 2	Renilla control light, replicate 1	Renilla control light, replicate 2	outcome
1	CG12507	DRSC19463	2.90e5	2.51e5	4.02e6	4.04e6	inactive
2	lncRNA:CR32835	DRSC22693	7.59e5	6.48e5	2.18e6	1.72e6	inactive
3	lncRNA:CR32835	DRSC26198	2.73e5	3.58e5	1.06e6	1.00e6	inactive
4	Set8	DRSC15473	1.11e5	75212	8.40e5	4.90e5	inactive
5	Set8	DRSC27118	2.60e5	2.42e5	5.25e5	4.00e5	inactive
6	CG43737	DRSC19609	5.25e5	5.92e5	2.74e6	3.42e6	inactive
7	CG43737	DRSC19610	4.30e5	5.23e5	3.79e6	3.76e6	inactive
8	CG43737	DRSC27659	5.61e5	6.08e5	7.52e5	7.95e5	inactive
9	CG43737	DRSC38998	4.09e5	3.71e5	1.72e6	1.29e6	inactive
10	GluRS-m	DRSC10431	2.42e5	1.50e5	1.94e6	1.12e6	inactive
11	GluRS-m	DRSC26953	4.28e5	2.62e5	6.09e5	5.62e5	inactive
12	CG7251	DRSC03039	7.01e5	9.96e5	1.47e6	1.70e6	inactive
13	CG7251	DRSC28293	3.84e5	6.44e5	8.85e5	1.37e6	inactive
14	gammaSnap1	DRSC04686	1.12e6	8.28e5	8.04e5	8.56e5	active
15	gammaSnap1	DRSC28381	3.92e5	5.46e5	1.54e6	2.02e6	active
16	gammaSnap1	DRSC38987	8.20e5	8.13e5	1.71e6	1.71e6	inactive
17	CG18539	DRSC06766	1.05e5	1.62e5	2.05e6	2.05e6	inactive
18	CG31835 + CG42585	DRSC01412	1.68e5	1.40e5	7.64e5	6.20e5	inactive
19	CG3609	DRSC00620	1.27e5	1.19e5	7.18e5	6.20e5	inactive
20	CG3609	DRSC29005	4.81e5	4.10e5	1.17e6	7.87e5	inactive
21	wb	DRSC01375	16131	26693	1.84e5	1.87e5	inactive
22	wb	DRSC03634	1.81e5	2.07e5	2.28e6	2.93e6	inactive
23	wb	DRSC23003	1.07e6	1.29e6	1.20e6	1.44e6	inactive
24	wb	DRSC39164	1.01e6	9.25e5	2.60e6	2.02e6	inactive
25	spn-A	DRSC16812	1.89e5	1.67e5	1.83e6	2.45e6	inactive
26	CRAT	DRSC12523	53601	67496	9.19e5	6.75e5	inactive
27	CRAT	DRSC29377	4.58e5	4.62e5	1.00e6	1.00e6	inactive
28	tomboy20	DRSC14913	1.23e5	91351	1.64e6	1.31e6	inactive
29	CG14187	DRSC10186	2.44e5	1.66e5	1.92e6	1.87e6	inactive
30	CG14187	DRSC26776	4.04e5	3.33e5	8.45e5	8.09e5	inactive
31	CG12310	DRSC09878	1.97e5	1.20e5	2.50e6	1.36e6	inactive
32	CG12310	DRSC25358	9.68e5	1.17e6	1.31e6	1.21e6	inactive
33	TwdlX	DRSC19151	4.19e5	3.69e5	6.09e5	4.69e5	inactive
34	TwdlX	DRSC29528	2.92e5	4.26e5	4.83e5	4.83e5	inactive
35	CecB	DRSC16605	2.39e5	2.46e5	2.31e6	2.99e6	inactive
36	CG18814	DRSC10347	2.93e5	1.53e5	1.52e6	1.50e6	inactive
37	Stat92E	DRSC16870	55251	57158	7.07e5	7.33e5	inactive
38	Stat92E	DRSC37655	4.84e5	4.31e5	1.49e6	1.19e6	inactive
39	ND-AGGG + CG40472	DRSC37805	8.48e5	8.65e5	1.96e6	2.20e6	inactive
40	Atg10 + CG18853 + CG12822	DRSC20757	4.00e5	3.35e5	2.94e5	2.70e5	inactive
41	Atg9	DRSC06848	8.65e5	6.05e5	1.30e6	7.94e5	inactive
42	CG12016 + Dpm2	DRSC08224	70122	1.56e5	4.33e5	5.44e5	inactive
43	CG12016 + Dpm2	DRSC25292	9.77e5	1.22e6	1.08e6	1.03e6	inactive
44	l(2)34Fc	DRSC01910	1.48e5	1.92e5	2.00e6	1.73e6	inactive
45	snRNA:U2:34ABb	DRSC37897	8.42e5	8.64e5	1.30e6	1.64e6	inactive
46	Sbf	DRSC16852	40167	75115	2.24e5	5.06e5	active
47	Sbf	DRSC27418	2.69e5	2.18e5	6.42e5	7.56e5	inactive
48	Sbf	DRSC37037					inactive
49	CG33927	DRSC37831	1.27e6	1.17e6	1.77e6	1.72e6	inactive
50	Syn2	DRSC06902	1.05e5	1.23e5	2.14e6	2.14e6	inactive
51	danr	DRSC14651	1.55e5	1.91e5	1.82e6	1.77e6	inactive
52	danr	DRSC27029	3.21e5	1.93e5	5.74e5	3.72e5	inactive
53	unc-13-4A	DRSC10201	3.83e5	2.48e5	3.68e6	3.55e6	inactive
54	unc-13-4A	DRSC10202	2.25e5	2.01e5	2.14e6	1.95e6	inactive
55	unc-13-4A	DRSC11013	1.35e5	1.59e5	1.57e6	1.98e6	inactive
56	Rgl	DRSC11267	2.74e5	2.22e5	2.74e6	1.87e6	inactive
57	CG31807	DRSC01550	1.55e5	2.05e5	4.10e5	5.34e5	inactive
58	bab1	DRSC08709	93792	94269	1.68e6	1.96e6	inactive
59	bab1	DRSC21882	4.79e5	4.10e5	8.36e5	1.03e6	inactive
60	bab1	DRSC25457	1.05e6	1.33e6	1.08e6	1.01e6	inactive
61	Or94a	DRSC16772	2.42e5	1.52e5	1.99e6	1.94e6	inactive
62	5-HT2B	DRSC16360	85442	81232	1.65e6	1.41e6	inactive
63	5-HT2B	DRSC16362	1.29e5	1.30e5	2.12e6	2.14e6	inactive
64	5-HT2B	DRSC25577	1.61e6	1.53e6	1.05e6	9.61e5	inactive
65	PI31	DRSC07306	1.14e6	1.43e6	1.86e6	1.70e6	inactive
66	CG5391	DRSC15790	2.41e5	2.23e5	2.71e6	3.07e6	inactive
67	CG5567	DRSC10517	78804	57247	4.41e5	4.20e5	inactive
68	Pten	DRSC03402	1.74e5	1.95e5	1.22e6	1.39e6	inactive
69	Pten	DRSC29950	1.16e6	8.46e5	1.72e6	2.04e6	inactive
70	Letm1	DRSC04476	6.48e5	6.38e5	1.40e6	1.61e6	inactive
71	Tsp29Fb	DRSC03233	1.97e5	1.14e5	1.67e6	1.45e6	inactive
72	Tsp29Fb	DRSC26296	2.86e5	2.57e5	5.07e5	4.87e5	inactive
73	CG6287	DRSC02947	9.81e5	8.70e5	1.91e6	2.35e6	inactive
74	CG6287	DRSC27507	6.08e5	4.68e5	8.32e5	6.92e5	inactive

Looked up above:
Value for CG14187 [DRSC26776] under “firefly reporter light, replicate 1”: 4.04e5
gammaSnap1 [DRSC04686], outcome: active
For “firefly reporter light, replicate 2”, lncRNA:CR32835 [DRSC26198] shows 3.58e5
Value of CRAT [DRSC29377] under “firefly reporter light, replicate 2”: 4.62e5
Syn2 [DRSC06902], Renilla control light, replicate 1: 2.14e6
For “Renilla control light, replicate 2”, 5-HT2B [DRSC16362] has 2.14e6
